# Assay results taken from the supplement of paper PMC4604168 (melanoma cell lines).
# Some of the results follow. Repeats are few or missing, and single values can be far off.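 Cells were imaged in 1,536-well plates, and nuclei stained with an antibody against cleaved PARP were counted against all DNA-stained nuclei to give the apoptosis fraction. Screening doses were chosen to leave most cells alive, and resting and induced cleaved-PARP levels differ strongly between cell lines.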
# Legend:
# Assay in all cases: cleaved PARP positive nuclei fraction relative to DMSO control; melanoma cells; higher = more apoptosis
# Settings in all cases: library dose: low library concentration; 72 h
# [1] = test system: MZ2-MEL
# [2] = test system: MeWo
# [3] = test system: RPMI7951
# [4] = test system: RVH-421
# [5] = test system: SkMel28
# [6] = test system: SkMel2
# [7] = test system: SkMel30
# [8] = test system: SkMel5
# [9] = test system: UACC257
# [10] = test system: UACC62
SMILES,cleaved PARP positive nuclei fraction [1] [%],cleaved PARP positive nuclei fraction [2] [%],cleaved PARP positive nuclei fraction [3] [%],cleaved PARP positive nuclei fraction [4] [%],cleaved PARP positive nuclei fraction [5] [%],cleaved PARP positive nuclei fraction [6] [%],cleaved PARP positive nuclei fraction [7] [%],cleaved PARP positive nuclei fraction [8] [%],cleaved PARP positive nuclei fraction [9] [%],cleaved PARP positive nuclei fraction [10] [%]
"Cn1cc(C2=C(c3cn(C4CCN(Cc5ccccn5)CC4)c4ccccc34)C(=O)NC2=O)c2ccccc21 [Enzastaurin] + C[C@@H]1CCN(C(=O)CC#N)C[C@@H]1N(C)c1ncnc2[nH]ccc12 [CP690550] (first compound 0.8 µM, partner dose 1 µM)",143,29,116,57.3,115,217,116,136,96.4,136
"CC1(C)CCC(c2ccc(Cl)cc2)=C(CN2CCN(c3ccc(C(=O)NS(=O)(=O)c4ccc(N[C@H](CCN5CCOCC5)CSc5ccccc5)c(S(=O)(=O)C(F)(F)F)c4)cc3)CC2)C1 + C/C(O)=C(\C#N)C(=O)Nc1cc(Br)ccc1Br [LFM-A13] (first compound 0.4 µM, partner dose 2 µM)",373,765,201,136,368,258,47.7,145,561,1130
"N.N.[Cl][Pt][Cl] [cisplatin] + N#Cc1c(O)c2c(-c3ccc(-c4ccccc4O)cc3)csc2[nH]c1=O [A769662] (first compound 1.6 µM, partner dose 2 µM)",208,145,75.4,119,168,113,281,158,52.1,80.4
"O=C(O)c1ccc2c(c1)nc(Nc1cccc(Cl)c1)c1ccncc12 + Cc1cc(SCc2sc(-c3ccc(C(F)(F)F)c(F)c3)nc2C)ccc1OCC(=O)O [GW0742] (first compound 0.4 µM, partner dose 2 µM)",37,83.6,131,121,27,111,112,192,85,115
"C[C@@H](Oc1cc(-c2cnn(C3CCNCC3)c2)cnc1N)c1c(Cl)ccc(F)c1Cl [Crizotinib] + O=C(Oc1ccc([N+](=O)[O-])cc1)N1CCC(C(O)(c2ccc3c(c2)OCO3)c2ccc3c(c2)OCO3)CC1 [JZL184] (first compound 0.2 µM, partner dose 1 µM)",142,140,101,108,136,35.5,99.6,74.1,181,85
"C[As](C)SC[C@H](NC(=O)CC[C@H](N)C(=O)O)C(=O)NCC(=O)O [Darinaparsin] + O=C(O)c1ccc(-c2c[nH]c3ncc(-c4ccccc4)cc23)cc1C1CCCC1 [GSK650394] (first compound 0.4 µM, partner dose 0.16 µM)",115,111,94.4,70.5,199,59.6,123,43.5,96.8,64.4
"Cc1cc(Nc2cc(N3CCN(C)CC3)nc(Sc3ccc(NC(=O)C4CC4)cc3)n2)n[nH]1 [Tozasertib] + C/C(O)=C(\C#N)C(=O)Nc1cc(Br)ccc1Br [LFM-A13] (first compound 0.006 µM, partner dose 2 µM)",119,265,84.9,170,168,97,148,161,83.2,218
"NC1(c2ccc(-c3nc4ccn5c(=O)[nH]nc5c4cc3-c3ccccc3)cc2)CCC1 + Cc1cc(SCc2sc(-c3ccc(C(F)(F)F)c(F)c3)nc2C)ccc1OCC(=O)O [GW0742] (first compound 0.4 µM, partner dose 2 µM)",131,120,82.9,115,147,35.1,18.8,160,220,208
"N.N.[Cl][Pt][Cl] [cisplatin] + O=c1cc(-c2cccc3c2Sc2ccccc2S3)oc(N2CCOCC2)c1 [KU55933] (first compound 1.6 µM, partner dose 1 µM)",151,82.6,197,138,135,29.9,24,75.2,70.9,32.3
"NC1(c2ccc(-c3nc4ccn5c(=O)[nH]nc5c4cc3-c3ccccc3)cc2)CCC1 + C/C(O)=C(\C#N)C(=O)Nc1cc(Br)ccc1Br [LFM-A13] (first compound 0.4 µM, partner dose 2 µM)",73.4,43.4,91.3,91.9,536,73.6,120,73.5,306,129
"CC(=O)c1c(C)c2cnc(Nc3ccc(N4CCNCC4)cn3)nc2n(C2CCCC2)c1=O [palbociclib] + Cc1cc(SCc2sc(-c3ccc(C(F)(F)F)c(F)c3)nc2C)ccc1OCC(=O)O [GW0742] (first compound 0.04 µM, partner dose 2 µM)",104,86.2,44.4,95.2,133,112,138,95.3,94.7,84.9

# Pulled one by one from the entries so far:
SMILES,cleaved PARP positive nuclei fraction [1] [%],cleaved PARP positive nuclei fraction [2] [%],cleaved PARP positive nuclei fraction [3] [%],cleaved PARP positive nuclei fraction [4] [%],cleaved PARP positive nuclei fraction [5] [%],cleaved PARP positive nuclei fraction [6] [%],cleaved PARP positive nuclei fraction [7] [%],cleaved PARP positive nuclei fraction [8] [%],cleaved PARP positive nuclei fraction [9] [%],cleaved PARP positive nuclei fraction [10] [%]
"CC(=O)c1c(C)c2cnc(Nc3ccc(N4CCNCC4)cn3)nc2n(C2CCCC2)c1=O [palbociclib] + Cc1cc(SCc2sc(-c3ccc(C(F)(F)F)c(F)c3)nc2C)ccc1OCC(=O)O [GW0742] (first compound 0.04 µM, partner dose 2 µM)",104,86.2,44.4,95.2,133,112,138,95.3,94.7,84.9
"NC1(c2ccc(-c3nc4ccn5c(=O)[nH]nc5c4cc3-c3ccccc3)cc2)CCC1 + Cc1cc(SCc2sc(-c3ccc(C(F)(F)F)c(F)c3)nc2C)ccc1OCC(=O)O [GW0742] (first compound 0.4 µM, partner dose 2 µM)",131,120,82.9,115,147,35.1,18.8,160,220,208
